Experimental data published in the supplement of paper PMC10338343.
± gives the standard deviation. This is a selection; strong and weak results do not stand in their true shares. Many entries were measured with a wide error.

How the values were obtained:
[1] = test system: MILI (PIWIL2) piRISC loaded with piRNA #1 (26 nt); assay: pre-steady-state target cleavage rate (min^-1); higher = faster piRNA-guided slicing of the target; details: guide: piRNA #1 5'p-UGAGGUAGUAGGUUGUAUAGUAUCCA; auxiliary factor: 500 nM mouse GTSF1
Method in brief: (§1)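 Active affinity-purified piRISC (1 nM) loaded with one synthetic guide was mixed with a transcribed, DNA-blocked target RNA library (0.1 nM), with or without 500 nM GTSF1 partner protein, in HEPES–potassium acetate buffer at 33 °C for 0–8 or 0–960 min. Uncleaved targets were sequenced, normalised to depth and to weakly complementary targets, and pooled across three trials, with k3 capped at 0.0001 min^-1. The pre-steady-state cleavage rate was determined with a burst-and-steady-state fit.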

[2] = test system: MIWI (PIWIL1) piRISC loaded with piRNA #1 (30 nt); assay: as above; details: guide: piRNA #1 5'p-UGAGGUAGUAGGUUGUAUAGUAUCCAGAGG; auxiliary factor: 500 nM mouse GTSF1
Method in brief: as §1

[3] = test system: EfPiwi piRISC loaded with piRNA #1 (26 nt); assay: pre-steady-state target cleavage rate (min^-1); guide: piRNA #1 5'p-UGAGGUAGUAGGUUGUAUAGUAUCCA; MIWI and MILI are mouse PIWI proteins and EfPiwi is from a freshwater sponge; tags in brackets are library labels; higher = faster piRNA-guided slicing of the target; details: auxiliary factor: 500 nM Ephydatia muelleri Gtsf1
Method in brief: as §1

## GGAGACCUAACUAUACAACCGACUACCUCA
[1]
  pre-steady-state target cleavage rate: 0.00192 ± 0.0097
[2]
  pre-steady-state target cleavage rate: 0.00276 ± 0.0052
[3]
  pre-steady-state target cleavage rate: 0.00295 ± 0.005

## GGAGACCUAUGAUAACUACCUACUACCACA
[1]
  pre-steady-state target cleavage rate: 0.000873 ± 0.0065
[2]
  pre-steady-state target cleavage rate: 0.000171 ± 0.014
[3]
  pre-steady-state target cleavage rate: 0.000167 ± 0.019

## GGAGACCUAUGAUAUCAACCUACUAGCCUCA
[1]
  pre-steady-state target cleavage rate: 0.0019 ± 0.0035
[2]
  pre-steady-state target cleavage rate: 0.000173 ± 0.014
[3]
  pre-steady-state target cleavage rate: 0.000164 ± 0.017

## GGAGACCUAUGUAUACAACGCUACUACCUCA
[1]
  pre-steady-state target cleavage rate: 0.000995 ± 0.0071
[2]
  pre-steady-state target cleavage rate: 0.000212 ± 0.0097
[3]
  pre-steady-state target cleavage rate: 0.00105 ± 0.007

## GGAGACCAUACUAUAGAACCUACUAGCUCA
[1]
  pre-steady-state target cleavage rate: 0.00202 ± 0.0051
[2]
  pre-steady-state target cleavage rate: 0.00246 ± 0.0038
[3]
  pre-steady-state target cleavage rate: 0.00106 ± 0.0027

## GGAGACCUAUGAUAUGUUGCUACUACGUGA
[1]
  pre-steady-state target cleavage rate: 0.000457 ± 0.01
[2]
  pre-steady-state target cleavage rate: 0.000413 ± 0.0092
[3]
  pre-steady-state target cleavage rate: 0.000454 ± 0.0078

## GGAGACCUAUGAUAUGUACCGUACUACCUCA
[1]
  pre-steady-state target cleavage rate: 0.00056 ± 0.0065
[2]
  pre-steady-state target cleavage rate: 0.000256 ± 0.0079
[3]
  pre-steady-state target cleavage rate: 0.0012 ± 0.0068

## GGAGAGGAUACUAUACUUGGAUGAUGGAGA [g15:g25:cont:t1A]
[1]
  pre-steady-state target cleavage rate: 0.000517 ± 0.011
[2]
  pre-steady-state target cleavage rate: 0.000582 ± 0.009
[3]
  pre-steady-state target cleavage rate: 0.000106 ± 0.036

## GGAGACCUAACUAUACUUGCUACUACCUCA
[1]
  pre-steady-state target cleavage rate: 0.0149 ± 0.0044
[2]
  pre-steady-state target cleavage rate: 0.000807 ± 0.012
[3]
  pre-steady-state target cleavage rate: 0.00139 ± 0.0074

## GGAGACCUAUGAUAUCAACCCACUACCUCA
[1]
  pre-steady-state target cleavage rate: 0.00124 ± 0.0057
[2]
  pre-steady-state target cleavage rate: 0.000366 ± 0.0067
[3]
  pre-steady-state target cleavage rate: 0.000684 ± 0.01

## GGAGACCUAUGAUUCCAACCUACUACCUCA
[1]
  pre-steady-state target cleavage rate: 0.0018 ± 0.0051
[2]
  pre-steady-state target cleavage rate: 0.000261 ± 0.014
[3]
  pre-steady-state target cleavage rate: 0.000746 ± 0.0065

## GGAGACCUAUGAUAACAACCUACAACCUGA
[1]
  pre-steady-state target cleavage rate: 0.00114 ± 0.0046
[2]
  pre-steady-state target cleavage rate: 0.000123 ± 0.014
[3]
  pre-steady-state target cleavage rate: 0.000735 ± 0.013

## GGAGACCUAUGAUAUGUUGCUACAACCUCA
[1]
  pre-steady-state target cleavage rate: 0.000599 ± 0.011
[2]
  pre-steady-state target cleavage rate: 0.000887 ± 0.0076
[3]
  pre-steady-state target cleavage rate: 0.000441 ± 0.0052

## GGAGACCUAUGAAUACAACCUACUAGCUCA
[1]
  pre-steady-state target cleavage rate: 0.00444 ± 0.0022
[2]
  pre-steady-state target cleavage rate: 0.000438 ± 0.0049
[3]
  pre-steady-state target cleavage rate: 0.00123 ± 0.0037

## GGAGACCUAUGAUAUCAACCUACUACCUCA
[1]
  pre-steady-state target cleavage rate: 0.00173 ± 0.0042
[2]
  pre-steady-state target cleavage rate: 0.000253 ± 0.013
[3]
  pre-steady-state target cleavage rate: 0.00158 ± 0.0045

## GGAGACCUAUGAUUACAACCUACUACCUGA
[1]
  pre-steady-state target cleavage rate: 0.00263 ± 0.0027
[2]
  pre-steady-state target cleavage rate: 0.000904 ± 0.0046
[3]
  pre-steady-state target cleavage rate: 0.00143 ± 0.0036

## GGAGACCUAUGAUUACAUGGUACUACCUCA
[1]
  pre-steady-state target cleavage rate: 0.000935 ± 0.0083
[2]
  pre-steady-state target cleavage rate: 0.00159 ± 0.0048
[3]
  pre-steady-state target cleavage rate: 0.000438 ± 0.0063
